{
  "source": "patent US9993536B2",
  "about": "“Peptides and combination of peptides and scaffolds for use in immunotherapy against renal cell carcinoma (RCC) and other cancers” (immatics biotechnologies GmbH, priority 2015, dated 2018)",
  "key": {"RCC samples": {"test_system": "RCC samples", "assay": "Label-free relative LC-MS quantitation of HLA-presented peptides (presentation profile/score), RCC vs normal tissues", "parameters": "species or system human; key: very highly over-presented on tumors compared to a panel of normal tissues (+++); highly over-presented on tumors compared to a panel of normal tissues (++); over-presented on tumors compared to a panel of normal tissues (+)", "conditions": "tumors (RCC) compared to a panel of normal tissues"}, "[1]": {"test_system": "tumor samples of other tumor types", "assay": "LC-MS detection/over-presentation of peptides on additional tumor types vs normal tissues", "parameters": "species or system human", "conditions": "for Other relevant organs/diseases: additional tumor types: over-presented on more than 5% of measured tumor samples, or presented on more than 5% with ratio of geometric means tumor vs normal tissues larger than 3; for Additional Entities: additional tumor types: over-presentation on more than 5% of measured tumor samples, or presentation on more than 5% with ratio of geometric means tumor vs normal larger than 3"}, "[2]": {"test_system": "source genes (mRNA) in RCC and normal tissues", "assay": "Expression profiling of genes encoding the peptides (Affymetrix microarray)", "parameters": "species or system human; key: very highly over-expressed in tumors compared to a panel of normal tissues (+++); highly over-expressed in tumors compared to a panel of normal tissues (++); over-expressed in tumors compared to a panel of normal tissues (+)", "conditions": "tumors compared to a panel of normal tissues"}},
  "note": "For some assays here: For expression read-outs the peptide stands for its source gene, whose mRNA was measured; the gene is not named for every peptide.",
  "data": [
    {"substance": "131: peptide found in PLIN2 (gene looked up) (VMAGDIYSV; listed as Homo sapiens) [compound 131]", "values": [
      {"measurement": "Peptide Presentation (presentation score)", "setting": "RCC samples", "result": "++"},
      {"measurement": "Other relevant organs/diseases", "setting": "[1]", "result": "Lung, Liver, Pancreas, Esophagus"},
      {"measurement": "Gene Expression (expression score)", "setting": "[2]", "result": "+"}
    ]},
    {"substance": "101: peptide found in FLT1 (gene looked up) (HIYDKAFITV; listed as Homo sapiens) [compound 101]", "values": [
      {"measurement": "Peptide Presentation (presentation score)", "setting": "RCC samples", "result": "++"},
      {"measurement": "Additional Entities", "setting": "[1]", "result": "SCLC, BRCA"},
      {"measurement": "Other relevant organs/diseases", "setting": "[1]", "result": "Liver, Ovary"},
      {"measurement": "Gene Expression (expression score)", "setting": "[2]", "result": "++"}
    ]},
    {"substance": "51: peptide found in ITGA3 (gene looked up) (NLWPMILTL; listed as Homo sapiens) [compound 51]", "values": [
      {"measurement": "Peptide Presentation (presentation score)", "setting": "RCC samples", "result": "+++"},
      {"measurement": "Additional Entities", "setting": "[1]", "result": "Melanoma, Uterine Cancer, Gallbladder Cancer, Bile Duct Cancer, Esophageal Cancer"},
      {"measurement": "Other relevant organs/diseases", "setting": "[1]", "result": "Lung, Pancreas, Esophagus"},
      {"measurement": "Gene Expression (expression score)", "setting": "[2]", "result": "+"}
    ]},
    {"substance": "93: peptide found in PLIN2 (gene looked up) (GVMAGDIYSV; listed as Homo sapiens) [compound 93]", "values": [
      {"measurement": "Peptide Presentation (presentation score)", "setting": "RCC samples", "result": "++"},
      {"measurement": "Additional Entities", "setting": "[1]", "result": "Gallbladder Cancer, Bile Duct Cancer, PC"},
      {"measurement": "Other relevant organs/diseases", "setting": "[1]", "result": "Lung, Colon, Rectum, Liver, Esophagus"},
      {"measurement": "Gene Expression (expression score)", "setting": "[2]", "result": "+"}
    ]},
    {"substance": "120: peptide found in SLC22A2 (gene looked up) (GLAGDNIYL; listed as Homo sapiens) [compound 120]", "values": [
      {"measurement": "Peptide Presentation (presentation score)", "setting": "RCC samples", "result": "+++"},
      {"measurement": "Gene Expression (expression score)", "setting": "[2]", "result": "+"}
    ]},
    {"substance": "7: peptide found in EGLN3 (gene looked up) (FLLSLIDRL; listed as Homo sapiens) [compound 7]", "values": [
      {"measurement": "Peptide Presentation (presentation score)", "setting": "RCC samples", "result": "+++"},
      {"measurement": "Gene Expression (expression score)", "setting": "[2]", "result": "++"}
    ]},
    {"substance": "18: peptide found in ACLY (gene looked up) (YVLDLAAKV; listed as Homo sapiens) [compound 18]", "values": [
      {"measurement": "Peptide Presentation (presentation score)", "setting": "RCC samples", "result": "+++"},
      {"measurement": "Additional Entities", "setting": "[1]", "result": "SCLC, CLL, BRCA, Melanoma, Uterine Cancer, NHL"},
      {"measurement": "Gene Expression (expression score)", "setting": "[2]", "result": "+"}
    ]},
    {"substance": "50: peptide found in ITGA3 (gene looked up) (SLSDHIVLL; listed as Homo sapiens) [compound 50]", "values": [
      {"measurement": "Peptide Presentation (presentation score)", "setting": "RCC samples", "result": "+"},
      {"measurement": "Additional Entities", "setting": "[1]", "result": "PC, Melanoma, Esophageal Cancer, Urinary bladder cancer, Gallbladder Cancer, Bile Duct Cancer"},
      {"measurement": "Other relevant organs/diseases", "setting": "[1]", "result": "Lung"},
      {"measurement": "Gene Expression (expression score)", "setting": "[2]", "result": "+"}
    ]},
    {"substance": "139: peptide found in ACLY (gene looked up) (ILNVDGLIGV; listed as Homo sapiens) [compound 139]", "values": [
      {"measurement": "Peptide Presentation (presentation score)", "setting": "RCC samples", "result": "++"},
      {"measurement": "Other relevant organs/diseases", "setting": "[1]", "result": "Brain, Colon, Rectum, Liver, Prostate"},
      {"measurement": "Gene Expression (expression score)", "setting": "[2]", "result": "+"}
    ]},
    {"substance": "94: peptide found in CYB5A (gene looked up) (ILHHKVYDL; listed as Homo sapiens) [compound 94]", "values": [
      {"measurement": "Peptide Presentation (presentation score)", "setting": "RCC samples", "result": "+"},
      {"measurement": "Other relevant organs/diseases", "setting": "[1]", "result": "Liver"},
      {"measurement": "Gene Expression (expression score)", "setting": "[2]", "result": "+"}
    ]},
    {"substance": "37: peptide found in ABCC3 (gene looked up) (VLAPVILML; listed as Homo sapiens) [compound 37]", "values": [
      {"measurement": "Peptide Presentation (presentation score)", "setting": "RCC samples", "result": "+++"},
      {"measurement": "Other relevant organs/diseases", "setting": "[1]", "result": "Lung, Colon, Rectum, Pancreas, Ovary"},
      {"measurement": "Gene Expression (expression score)", "setting": "[2]", "result": "+"}
    ]},
    {"substance": "62: peptide found in SLC47A1 (gene looked up) (VLAGPAFLVQL; listed as Homo sapiens) [compound 62]", "values": [
      {"measurement": "Peptide Presentation (presentation score)", "setting": "RCC samples", "result": "+++"},
      {"measurement": "Additional Entities", "setting": "[1]", "result": "Uterine Cancer"},
      {"measurement": "Gene Expression (expression score)", "setting": "[2]", "result": "+"}
    ]}
  ]
}
